Reference: PubChem BioAssay AID1439 (NMMLSC, 2008)
Among all 220,000 compounds or so, about 770 (0.35%) were called active. This list was built around the results that the source calls inconclusive (neither active nor inactive); the mix of calls is not that of the screen. No stated cut-off is given here; in the data, active means binding response below about 49% or above about 150%; inconclusive means no clear call, values can overlap the other calls; inactive means in between.

By UniProt entry, the sequences of proteins in these tests, tags left out.
UniProt P09471, whole entry, looked up: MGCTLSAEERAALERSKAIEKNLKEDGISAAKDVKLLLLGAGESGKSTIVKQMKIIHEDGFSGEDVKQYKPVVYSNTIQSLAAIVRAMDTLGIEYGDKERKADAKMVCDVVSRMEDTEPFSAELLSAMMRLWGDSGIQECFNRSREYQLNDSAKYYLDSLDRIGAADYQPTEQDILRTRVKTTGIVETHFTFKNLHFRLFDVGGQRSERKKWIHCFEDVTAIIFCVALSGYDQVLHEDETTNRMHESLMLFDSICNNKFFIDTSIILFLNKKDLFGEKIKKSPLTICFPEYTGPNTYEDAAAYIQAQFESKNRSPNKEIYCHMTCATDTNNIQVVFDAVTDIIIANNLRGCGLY

Molecular target: Guanine nucleotide-binding protein G(o) subunit alpha (Homo sapiens) (UniProt P09471)
Assay: RGS7-Galphao binding modulators, primary screen, biochemical, multiplexed bead flow cytometry (AID 1439);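 further: fluorescent Galphao held in activated GDP-AlF4 state binding bead-coupled RGS7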
Details: at 10 µM, actives lie on both sides

Row | SMILES | binding response (% of control)
1 | CC(C)NC(=O)c1onc(CSc2ccc(Cl)cc2)c1C(=O)NC(C)C | inconclusive: 87.3%
2 | COc1ccc(O)c(C(=O)c2cc(SCC(=O)O)c3nc4sc5c(c4c(=O)n3c2)CCCC5)c1 | inconclusive: 120%
3 | C/C(=N\NC(=O)Cc1cccn1C)c1cccs1 | active: 31.2%
4 | CCC(=O)O[C@@H]1CC(=O)O[C@H](C)CC=CC=C[C@@H](O)[C@H](C)C[C@H](CC=O)[C@H](O[C@H]2O[C@H](C)[C@@H](O[C@H]3C[C@@](C)(O)[C@@H](OC(=O)CC)[C@H](C)O3)[C@H](N(C)C)[C@H]2O)[C@H]1OC | inconclusive: 120%
5 | O=C(CC(NC(=O)C(F)(F)F)c1ccccc1)Nc1nnc(CCc2ccccc2)s1 (stereo not given) | inactive: 108%
6 | Cn1cnc(S(=O)(=O)Nc2cc(C(F)(F)F)ccc2N2CCOCC2)c1 | inconclusive: 2.73%
7 | Cc1cccc(/C=N/NC(=O)Cn2nnnc2N)n1 | inconclusive: 138%
8 | O=C(N/N=C/c1ccc([N+](=O)[O-])o1)C(=O)Nc1ccc(C(=O)O)cc1 | inconclusive: 93.3%
9 | O=S(=O)(NC1=NCCC1)c1ccc(F)cc1F | inconclusive: 102%
10 | CCC(CC)NCCOC(=O)c1ccc([N+](=O)[O-])cc1 | inconclusive: 80.6%
11 | CCCCN(CCCC)CCCNC(=O)C12CN(Cc3ccccc3)CC1C(c1cccc([N+](=O)[O-])c1)=NO2 (stereo not given) | inactive: 102%
12 | CC12CCC(C(=Nc3ccc(N=C4C(=O)C5(C)CCC4C5(C)C)cc3)C1=O)C2(C)C | inconclusive: 69.4%
13 | CC(C)(C)c1ccc(NC(=O)Nc2ccc3ccccc3n2)cc1 | inconclusive: 85.4%
14 | Cc1c(/C(O)=C2\C(=O)C(=O)N(CCN(C)C)C2c2ccccc2)cnn1-c1ccccc1 (stereo not given) | inconclusive: 106%
15 | CNC(=O)COC(=O)c1ccccc1NC(=O)c1ccco1 | inconclusive: 2.61%
16 | O=[N+]([O-])c1cccc(/C=C/c2ccccn2)c1 | inconclusive: -166%
17 | CCc1cc(=O)oc2cc(C)c(CN3CCCC(C)C3)c(O)c12 (stereo not given) | inactive: 99.8%
18 | O=C1c2nc3cc(-c4ccccc4)[nH]n3c(=O)c2CN1Cc1ccccc1 | inconclusive: 18.1%
19 | COc1ccc(NC(=O)c2ccc(OCc3c(C)noc3C)c(OC)c2)cn1 | inconclusive: 98.3%
20 | N#C/C(=C/c1cccs1)c1ccccn1 | inconclusive: 106%
21 | Cc1cc(C)c(N=C2SCC(=O)N2Cc2ccco2)c(C)c1 | inconclusive: 123%
22 | COc1ccc(C(=O)CN2C(=O)NC3(CCCCC3)C2=O)cc1OC | inconclusive: 116%
23 | NC(=O)N/N=C/c1c(Sc2nnnn2-c2ccccc2)nc2ccccn2c1=O | inconclusive: -272%
24 | O=C(C1CCCN1S(=O)(=O)c1cccc2nsnc12)N1CCCCCC1 (stereo not given) | inconclusive: 30.1%
25 | CCNc1nc(NCC)nc(N(C#N)C(C)C)n1 | inconclusive: 104%
26 | CC(C)NC(=S)NN=C1c2ccccc2-c2ccccc21 | inconclusive: 109%
27 | C#CCOCCOCCOCCNc1nc(N2CCN(C(=O)[C@H](CCCCN)n3cc(C(N)CO)nn3)CC2)nc(N2CCN(C(=O)[C@H](CCC(=O)O)n3cc(C(N)CC(C)C)nn3)CC2)n1 (stereo not given in full) | inconclusive: 60%
28 | CCOC(=O)c1c(C)nn(-c2ccc(NC(=O)CSCC(=O)O)cc2)c1C | inconclusive: 97.9%

Row | SMILES | binding response (% of control)
29 | O=C(O)Cn1cc(/C=N/NC(=O)c2cc3cc(Br)ccc3o2)c2ccccc21 | inconclusive: 93.7%
30 | CCOC(=O)C1=NN(c2ccccc2)C2(S1)SC(C(C)=O)=C(C)N2c1ccccc1 (stereo not given) | inactive: 99.5%
31 | Cc1cc(Br)cc(C)c1NC(=O)c1ccc(C#N)cc1F | inconclusive: 114%
32 | COc1cc(/C=C2\C(C)=C(C#N)c3nc(N)c(C#N)c(C)c32)ccc1OCC(=O)O | inconclusive: 101%
33 | O=C(OCCNc1ccc(C(F)(F)F)cc1[N+](=O)[O-])c1cc2ccccc2oc1=O | inconclusive: 88.3%
34 | NC(=S)Nc1ccccc1Br | inconclusive: 108%
35 | CCN(CC)C(=S)SCC(=O)Nc1ncc2c(n1)CC(C)(C)CC2=O | inconclusive: 210%
36 | N=C1/C(=C\c2ccc(-c3ccc(C(=O)O)cc3)o2)C(=O)N=C2SC=C(c3ccccc3)N12 | inconclusive: 114%
37 | NS(=O)(=O)c1ccc(Nc2ccc3nonc3c2[N+](=O)[O-])cc1 | inconclusive: 90.4%
38 | Nc1ccc(C(=O)c2cccs2)cn1 | inconclusive: 134%
39 | Cc1ccccc1/C=N/Nc1ccc(Cl)nn1 | inconclusive: 93.5%
40 | C=C(C)C(=O)Nc1cccnc1Oc1ccc(F)cc1 | inconclusive: 98.1%
41 | O=C(O)c1cc(N/N=C/C(Cl)=C/c2ccccc2)ccc1Cl | inconclusive: 103%
42 | CC1(C)c2ccccc2N(CC(N)=O)C12C=Cc1ccccc1O2 (stereo not given) | inconclusive: 96.5%
43 | COCCN(CCOC)C(=O)N1CCOCC1 | inconclusive: 270%
44 | CC(C)COP(=O)(c1ccc(N(C)C)cc1)C(O)c1cccnc1 (stereo not given) | inconclusive: 96.9%
45 | Cc1cc(C(=O)Nc2ccc(Cl)cc2)c(C)n1-c1ccccc1 | inconclusive: -53%
46 | Nc1ccc2c(c1)OC1(CCCC1)O2 | inconclusive: 81.6%
47 | Cc1c(NC(=O)c2cn3ccccc3n2)cccc1-n1cnnn1 | inconclusive: 99.1%
48 | COc1ccc(C(=O)N[C@H](C(=O)NCc2ccco2)C(C)C)cc1 | inconclusive: 98.9%
49 | CCOc1ccc(C(=O)NC(=S)Nc2ccccc2N2CCOCC2)cc1Br | inactive: 95.8%
50 | O=S(=O)(NCc1ccc(Cl)cc1Cl)c1ccc(N2CCOCC2)nc1 | inconclusive: 87.4%
51 | C/C(=N\NC1=NCCN1)c1ccccc1 | inconclusive: 75.2%
52 | Cn1c(N)c(N2CCN(c3ccccc3)CC2)c(=O)[nH]c1=O | inconclusive: 104%
53 | NS(=O)(=O)c1ccc(N/N=C/c2ccccc2C(=O)O)c([N+](=O)[O-])c1 | inconclusive: 89.2%
54 | COCCn1c(-c2ccc(C)cc2)nc2oc3cc(OC)ccc3c(=O)c2c1=O | inconclusive: 123%
55 | NS(=O)(=O)c1cccc(NC(=O)C2CC(=O)N(Cc3ccco3)C2)c1 (stereo not given) | inconclusive: 87.3%

Rewritten as tab-separated lines: part of the list above
Row	SMILES	binding response (% of control)
1	CC(C)NC(=O)c1onc(CSc2ccc(Cl)cc2)c1C(=O)NC(C)C	inconclusive: 87.3%
2	COc1ccc(O)c(C(=O)c2cc(SCC(=O)O)c3nc4sc5c(c4c(=O)n3c2)CCCC5)c1	inconclusive: 120%
3	C/C(=N\NC(=O)Cc1cccn1C)c1cccs1	active: 31.2%
